PubChem BioAssay AID504808, Drosophila RNAi Screening Center – 2011
In all, the deposit lists about 21,000 reagents; shown is a random part of those that have a named target and a result. Over the whole deposit, 18 (0.084%) are marked active. 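Raw counts without plate normalisation, one of two replicates; the ratio scores behind the calls were not deposited.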 Unmarked entries are inactive. A plus sign joins genes that one reagent is predicted to hit. The record does not give: the amount of reagent, the time to read-out.

- Test: 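Fly genes required to hold E2F transcription in check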 (primary screen)
- System: Drosophila S2 cells
- Knock-down reagent: long dsRNA against Drosophila genes
- Detection: 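Firefly luciferase driven by E2F sites, normalised to Renilla luciferase on the same minimal promoter, measured by plate reader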
- Direction: E2F firefly: higher = more E2F reporter activity; Renilla normaliser: higher = more normaliser reporter signal
- Call rule: 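a knock-down counted as active when the firefly/Renilla E2F signal rose above 50%, a threshold chosen arbitrarily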

| target gene | amplicon | E2F firefly, rep 1 | Renilla normaliser, rep 1 |
| --- | --- | --- | --- |
| CG11588 | DRSC09145 | 1.30e5 | 4876 |
| CG11588 | DRSC09846 | 1.39e5 | 7385 |
| Den1 (Deneddylase 1) | DRSC07195 | 1.03e5 | 4696 |
| EndoGI (Endonuclease G inhibitor) | DRSC01964 | 1.10e5 | 4333 |
| Nrk (Neurospecific receptor kinase) | DRSC07480 | 1.04e5 | 4025 |
| Mks1 (Meckel syndrome, type 1) | DRSC19697 | 80789 | 4463 |
| bark (bark beetle) | DRSC00635 | 1.41e5 | 5454 |
| Cyt-b5-r (Cytochrome b5-related) | DRSC03308 | 89184 | 3905 |
| CG32195 | DRSC09533 | 1.36e5 | 4140 |
| mTTF (mitochondrial transcription termination factor) | DRSC01909 | 91770 | 4835 |
| PGRP-LD + Pmi | DRSC10512 | 77300 | 3683 |
| PGRP-LD + Pmi | DRSC10513 | 88533 | 4204 |
| wol (wollknaeuel) | DRSC03077 | 92396 | 3460 |
| BckdhA (Branched chain keto acid dehydrogenase E1 subunit alpha) | DRSC16395 | 1.48e5 | 6424 |
| sfl (sulfateless) | DRSC08828 | 1.34e5 | 4561 |
| sfl (sulfateless) | DRSC08830 | 1.27e5 | 5436 |
| Ugt37A3 (UDP-glycosyltransferase family 37 member A3) | DRSC15937 | 1.27e5 | 5661 |
| CG10205 | DRSC05979 | 77850 | 4419 |
| CG31787 | DRSC01632 | 1.32e5 | 4710 |
| gish (gilgamesh) | DRSC16154 | 70752 | 3518 |
| CG7884 | DRSC20065 | 1.40e5 | 6035 |
| MED27 (Mediator complex subunit 27) | DRSC12205 | 1.11e5 | 6197 |
| CG13658 | DRSC14659 | 1.13e5 | 6144 |
| CG15125 | DRSC06547 | 1.47e5 | 5069 |
| Agxt (Alanine-glyoxylate aminotransferase) | DRSC18718 | 7878 | 684 |
| CG11147 | DRSC02129 | 1.41e5 | 5212 |
| CG34251 | DRSC09498 | 1.35e5 | 3650 |
| CG34251 | DRSC09500 | 1.53e5 | 4121 |
| CG15296 | DRSC17983 | 1.45e5 | 5906 |
| CG31406 | DRSC12777 | 75777 | 3828 |
| dpr9 (defective proboscis extension response 9) | DRSC14534 | 73844 | 3554 |
| dpr9 (defective proboscis extension response 9) | DRSC14985 | 1.07e5 | 5849 |
| dpr9 (defective proboscis extension response 9) | DRSC14986 | 1.37e5 | 6571 |
| Met (Methoprene-tolerant) | DRSC20284 | 1.50e5 | 6896 |
| CG18179 | DRSC10303 | 1.06e5 | 4911 |
| CG14118 | DRSC10122 | 1.29e5 | 7309 |
| Ubc10 (Ubiquitin conjugating enzyme 10) | DRSC07568 | 1.82e5 | 5490 |
| Cyp312a1 (Cytochrome P450 312a1) | DRSC11128 | 1.64e5 | 8374 |
| CG42758 | DRSC10021 | 1.40e5 | 6755 |
| GlcAT-I (Glucuronyltransferase I) | DRSC17307 | 81302 | 2546 |
| betaNACtes1 (Nascent-associated complex beta-subunit-like, testis 1) | DRSC19534 | 1.63e5 | 6719 |
| MagR (Magnetic receptor) | DRSC20092 | 2.14e5 | 6786 |
| CG5196 | DRSC15735 | 1.58e5 | 7413 |
| KP78a + KP78b | DRSC16721 | 1.57e5 | 6964 |
| KP78a + KP78b | DRSC16722 | 1.55e5 | 7281 |
| Mocs1 (Molybdenum cofactor synthesis 1) | DRSC11225 | 87270 | 4392 |
| CG13064 | DRSC09947 | 1.43e5 | 6798 |
| Tmem131 (Transmembrane protein 131) | DRSC07154 | 75939 | 3108 |
| CG3793 | DRSC01982 | 84300 | 4018 |
| CG13362 | DRSC17897 | 56142 | 3151 |
| Dd (Dullard) | DRSC20539 | 1.96e5 | 5656 |
| CG12868 | DRSC06207 | 1.05e5 | 4178 |
| oc (ocelliless) | DRSC18808 | 93471 | 5536 |
| Pka-C2 (Protein kinase, cAMP-dependent, catalytic subunit 2) | DRSC16790 | 95396 | 6290 |
| Rexo5 (RNA exonuclease 5) | DRSC10981 | 82459 | 4162 |
| CG34408 | DRSC17733 | 8098 | 712 |
| Klp3A (Kinesin-like protein at 3A) | DRSC18676 | 1819 | 948 |
| CG3630 | DRSC18499 | 1631 | 880 |
| CG32461 | DRSC11594 | 92386 | 3602 |
| Ndc1 (Nuclear division cycle 1) | DRSC15895 | 66835 | 3370 |
| CG31296 | DRSC13092 | 88305 | 3208 |
| CG6931 | DRSC10750 | 73801 | 3824 |
| CG32809 | DRSC18507 | 78866 | 1012 |
| CG32809 | DRSC18562 | 1.28e5 | 6697 |
| CG32809 | DRSC18592 | 1923 | 1068 |
| CG17715 | DRSC11950 | 1.34e5 | 6733 |
| Pglym87 (Phosphoglyceromutase 87) | DRSC15252 | 67544 | 3820 |
| CG9304 | DRSC04538 | 1.13e5 | 4525 |
| Pax (Paxillin) | DRSC01703 | 1.41e5 | 7000 |
| Pax (Paxillin) | DRSC02651 | 90730 | 3491 |
| Pax (Paxillin) | DRSC02652 | 89055 | 3765 |
| rho-5 (rhomboid-5) | DRSC02847 | 1.58e5 | 4918 |
| Sym (Symplekin) | DRSC12301 | 62968 | 2785 |
| Jheh2 (Juvenile hormone epoxide hydrolase 2) | DRSC06530 | 1.58e5 | 4879 |
| eag (ether a go-go) | DRSC19067 | 85237 | 3089 |
| eag (ether a go-go) | DRSC20328 | 2.47e5 | 7252 |
| CG13155 | DRSC06280 | 95102 | 4150 |
| zetaTry (zetaTrypsin) | DRSC07720 | 90979 | 4401 |
| Tailor | DRSC12526 | 1.13e5 | 6422 |
| Osi3 (Osiris 3) | DRSC12175 | 1.39e5 | 6906 |
| Flacc (Fl(2)d-associated complex component) | DRSC20040 | 1.43e5 | 5956 |
| CG10866 | DRSC08171 | 1.02e5 | 4191 |
| CG32137 | DRSC10271 | 1.17e5 | 5342 |
| CG32137 | DRSC10272 | 94816 | 5429 |
| CG31743 + CG34313 | DRSC02781 | 87709 | 3428 |
| CG31743 + CG34313 | DRSC02782 | 1.06e5 | 4131 |
| Veneno | DRSC16537 | 1.48e5 | 7250 |
| ATbp ((A+T)-stretch binding protein) | DRSC20906 | 1.41e5 | 5997 |
| Elp1 (Elongator complex protein 1) | DRSC14250 | 71028 | 3903 |
| Myb (Myb oncogene-like) | DRSC20260 | 6834 | 700 |
| Cul5 (Cullin 5) | DRSC14723 | 1.08e5 | 5882 |
| CG8839 | DRSC07285 | 152 | 50 |
| Agps (Alkylglycerone phosphate synthase) | DRSC05984 | 92547 | 4439 |
| betaTub60D (beta-Tubulin at 60D) | DRSC04673 | 1.12e5 | 4062 |
| Exo70 (Exocyst 70) | DRSC10774 | 1.04e5 | 4392 |
| l(1)G0289 (lethal (1) G0289) | DRSC18215 | 8502 | 700 |
| CG15729 (retired record) | DRSC19695 | 1.28e5 | 6506 |
| CG7142 | DRSC16204 | 1.34e5 | 7180 |
| D12 | DRSC03311 | 95950 | 4211 |
| Aptx (aprataxin) | DRSC15768 | 1.40e5 | 6790 |
| CG14443 | DRSC17936 | 76695 | 5177 |
| Coq4 + Gorab + frc | DRSC10383 | 1.78e5 | 9485 |
| PolZ1 (DNA polymerase zeta subunit 1) | DRSC06800 | 2788 | 177 |
| Spn43Ad (Serpin 43Ad) | DRSC06770 | 1.34e5 | 4769 |
| Mettl14 (Methyltransferase like 14) | DRSC03073 | 76850 | 3342 |
| Fpgs1 (Folylpolyglutamate synthase 1) | DRSC19857 | 1.32e5 | 6367 |
| Map205 (Microtubule-associated protein 205) | DRSC16732 | 1831 | 984 |

6 entries already listed, arranged by “E2F firefly, rep 1”, lowest first:
| target gene | amplicon | E2F firefly, rep 1 | Renilla normaliser, rep 1 |
| --- | --- | --- | --- |
| CG13362 | DRSC17897 | 56142 | 3151 |
| Rexo5 (RNA exonuclease 5) | DRSC10981 | 82459 | 4162 |
| oc (ocelliless) | DRSC18808 | 93471 | 5536 |
| Pka-C2 (Protein kinase, cAMP-dependent, catalytic subunit 2) | DRSC16790 | 95396 | 6290 |
| CG12868 | DRSC06207 | 1.05e5 | 4178 |
| Dd (Dullard) | DRSC20539 | 1.96e5 | 5656 |
